Targets include SPIB (UniProt Q01892); ETV5 (UniProt P41161); ELF4 (UniProt Q99607).
What all share (assay): DAPPL (digital affinity profiling via proximity ligation, sequencing)
Holding throughout (details): 10 mM Tris-HCl pH 7.5, 50 mM NaCl, 1 mM DTT, 4% glycerol, room temperature, 30 min; GST-TFs on glutathione beads, 16-mer random dsDNA library, 0.1% …; high values mean tight binding; double strand, one strand shown; scale: fold enrichment (6-mer frequency, TF over GST control)

The chains behind the UniProt entries cited, without tags or fusion partners. Where a name states a change or a piece, a line headed by the entry shows the natural chain unless it says otherwise.
UniProt Q01892: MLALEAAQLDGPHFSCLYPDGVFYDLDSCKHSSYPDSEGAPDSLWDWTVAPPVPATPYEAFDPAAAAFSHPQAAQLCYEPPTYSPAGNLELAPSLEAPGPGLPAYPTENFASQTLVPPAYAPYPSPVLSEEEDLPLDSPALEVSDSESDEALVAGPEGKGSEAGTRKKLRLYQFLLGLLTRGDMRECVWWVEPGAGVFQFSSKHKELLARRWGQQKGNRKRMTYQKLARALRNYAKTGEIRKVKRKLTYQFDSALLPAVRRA
UniProt P41161: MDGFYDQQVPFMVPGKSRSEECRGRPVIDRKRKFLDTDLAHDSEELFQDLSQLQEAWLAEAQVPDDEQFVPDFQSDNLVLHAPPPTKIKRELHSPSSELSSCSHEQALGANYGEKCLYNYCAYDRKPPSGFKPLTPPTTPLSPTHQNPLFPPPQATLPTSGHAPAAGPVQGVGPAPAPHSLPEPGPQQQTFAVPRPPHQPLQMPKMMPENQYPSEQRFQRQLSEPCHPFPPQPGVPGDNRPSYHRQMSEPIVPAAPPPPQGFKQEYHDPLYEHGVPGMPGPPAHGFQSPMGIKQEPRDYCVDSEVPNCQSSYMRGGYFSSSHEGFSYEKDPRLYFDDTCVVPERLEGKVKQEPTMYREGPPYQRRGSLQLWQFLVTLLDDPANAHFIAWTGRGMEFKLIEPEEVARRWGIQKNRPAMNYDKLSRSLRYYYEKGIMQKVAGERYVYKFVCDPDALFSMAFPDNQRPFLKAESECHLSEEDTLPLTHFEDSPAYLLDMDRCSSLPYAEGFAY
UniProt Q99607: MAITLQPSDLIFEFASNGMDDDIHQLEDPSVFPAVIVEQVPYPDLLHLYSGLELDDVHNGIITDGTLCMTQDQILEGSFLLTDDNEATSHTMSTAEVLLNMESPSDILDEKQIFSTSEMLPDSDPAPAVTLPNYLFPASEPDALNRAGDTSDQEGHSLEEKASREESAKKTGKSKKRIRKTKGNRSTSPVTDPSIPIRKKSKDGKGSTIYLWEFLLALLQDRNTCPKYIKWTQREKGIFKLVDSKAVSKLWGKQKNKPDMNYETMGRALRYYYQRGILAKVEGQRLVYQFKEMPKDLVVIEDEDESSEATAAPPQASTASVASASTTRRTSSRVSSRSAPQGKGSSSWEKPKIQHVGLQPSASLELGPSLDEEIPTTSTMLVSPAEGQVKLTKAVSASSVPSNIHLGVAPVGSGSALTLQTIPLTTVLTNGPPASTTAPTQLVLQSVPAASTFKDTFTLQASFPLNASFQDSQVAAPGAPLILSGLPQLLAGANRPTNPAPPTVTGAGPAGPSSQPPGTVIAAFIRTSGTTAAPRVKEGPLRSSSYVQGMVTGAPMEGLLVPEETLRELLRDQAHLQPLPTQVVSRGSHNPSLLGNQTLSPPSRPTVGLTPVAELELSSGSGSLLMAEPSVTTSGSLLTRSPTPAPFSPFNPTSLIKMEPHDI

The next test concerns the target T1, FLI1 (UniProt Q01543).
T1 sequence: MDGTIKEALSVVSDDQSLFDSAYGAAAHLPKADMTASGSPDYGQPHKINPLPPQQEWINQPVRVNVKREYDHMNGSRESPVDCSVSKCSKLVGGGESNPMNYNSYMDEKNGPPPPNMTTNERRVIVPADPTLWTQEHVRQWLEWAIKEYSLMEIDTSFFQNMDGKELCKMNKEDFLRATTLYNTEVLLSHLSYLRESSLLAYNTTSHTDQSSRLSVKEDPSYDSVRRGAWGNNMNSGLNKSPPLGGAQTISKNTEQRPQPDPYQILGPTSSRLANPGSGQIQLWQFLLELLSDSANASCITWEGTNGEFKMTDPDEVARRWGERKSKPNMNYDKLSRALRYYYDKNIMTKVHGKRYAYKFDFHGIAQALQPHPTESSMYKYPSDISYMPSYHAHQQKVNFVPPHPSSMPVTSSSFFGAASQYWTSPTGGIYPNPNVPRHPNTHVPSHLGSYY

A further test has as its target T2, EHF (UniProt Q9NZC4).
T2 sequence: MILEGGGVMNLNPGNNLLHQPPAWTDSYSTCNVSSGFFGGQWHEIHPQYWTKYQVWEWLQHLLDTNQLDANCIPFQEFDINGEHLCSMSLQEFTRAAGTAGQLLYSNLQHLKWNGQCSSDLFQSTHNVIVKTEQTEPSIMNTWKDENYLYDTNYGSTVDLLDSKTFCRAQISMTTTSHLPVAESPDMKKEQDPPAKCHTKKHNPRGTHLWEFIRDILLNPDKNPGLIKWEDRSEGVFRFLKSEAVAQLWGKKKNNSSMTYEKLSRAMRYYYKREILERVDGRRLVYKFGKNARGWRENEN

Another test addresses T3, ETV2 (UniProt O00321).
T3 sequence: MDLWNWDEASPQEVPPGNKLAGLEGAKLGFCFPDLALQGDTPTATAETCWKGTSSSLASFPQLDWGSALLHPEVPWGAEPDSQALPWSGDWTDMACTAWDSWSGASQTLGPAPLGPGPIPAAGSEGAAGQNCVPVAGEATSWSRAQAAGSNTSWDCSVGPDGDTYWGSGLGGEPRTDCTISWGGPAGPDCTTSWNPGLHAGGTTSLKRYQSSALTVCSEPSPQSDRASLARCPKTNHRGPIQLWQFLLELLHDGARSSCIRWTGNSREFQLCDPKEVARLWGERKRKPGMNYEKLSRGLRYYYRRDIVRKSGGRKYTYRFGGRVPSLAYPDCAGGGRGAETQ

For a further test, the target named is T4, ETV3L (UniProt Q6ZN32).
T4 sequence: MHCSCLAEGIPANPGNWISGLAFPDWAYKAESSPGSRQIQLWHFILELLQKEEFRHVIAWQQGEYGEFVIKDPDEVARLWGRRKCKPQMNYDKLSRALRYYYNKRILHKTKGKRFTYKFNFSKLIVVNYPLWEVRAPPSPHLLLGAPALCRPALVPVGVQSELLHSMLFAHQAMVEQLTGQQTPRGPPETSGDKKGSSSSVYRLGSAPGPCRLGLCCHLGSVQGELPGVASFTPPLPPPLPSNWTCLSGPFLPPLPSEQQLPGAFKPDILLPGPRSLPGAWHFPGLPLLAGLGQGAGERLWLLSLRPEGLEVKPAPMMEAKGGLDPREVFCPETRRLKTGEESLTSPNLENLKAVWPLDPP

This is a selection; strong and weak results do not stand in their true shares. At the low end of the ranking the order means little.

With AGTTCA, the binding signal with FLI1 stood at 0.948; with EHF, 0.961; with SPIB, 0.902; in the test with ETV5, 0.946; in the test with ELF4, 0.899; with ETV2 it was 0.89.
Regarding GGACAA, the binding signal with FLI1 is 0.822; with EHF it was 0.752; with SPIB it was 0.819; in the test with ETV5 it was 0.783; with ELF4, 0.816; with ETV2 it was 0.838. Besides, the binding signal with ETV3L is 0.766.
On to TCGGGG, for which the binding signal with FLI1 was 0.429; with EHF, 0.389; in the test with SPIB, 0.4; with ETV5, 0.388; with ELF4, 0.397; in the test with ETV2, 0.401. The sequence also gave a binding signal in the test with ETV3L of 0.399.
With GGCGTC, the binding signal stood at 0.699 in the test with FLI1; 0.724 in the test with EHF; 0.768 with SPIB; 0.8 with ETV5; 0.826 with ELF4; 0.789 with ETV2. The same sequence gave a binding signal with ETV3L of 0.767.
With TTGGAC, the binding signal was 0.881 in the test with FLI1; 0.946 with EHF; 0.996 in the test with SPIB; 0.914 in the test with ETV5; 0.97 in the test with ELF4; 0.888 with ETV2. In the test with ETV3L, the binding signal is 0.938.
As to GAGCTA, the binding signal with FLI1 was 0.904; with SPIB, 0.833; with ETV5, 0.906; in the test with ELF4 it was 0.917; with ETV2, 0.939; in the test with ETV3L it was 0.907.
AGCGGG: the binding signal worked out at 0.485 in the test with FLI1; 0.487 with EHF; 0.517 with SPIB; 0.502 with ETV5; 0.469 in the test with ELF4; 0.505 in the test with ETV2. In addition, in the test with ETV3L, the binding signal was determined as 0.489.

For the origin of these results see publication PMC7862700.
